In the supplement of paper PMC10338343:
± gives the standard deviation. Only a part is listed here, and it is no random draw. The uncertainty is large for many entries.

Assays:
[1] = tested on: MILI (PIWIL2) piRISC loaded with piRNA #1 (26 nt); assay: pre-steady-state target cleavage rate (min^-1); higher = faster piRNA-guided slicing of the target; details: guide: piRNA #1 5'p-UGAGGUAGUAGGUUGUAUAGUAUCCA; auxiliary factor: 500 nM mouse GTSF1
Procedure, shortened: (§1)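 The pre-steady-state cleavage rate came from a burst-and-steady-state fit to pooled data from three Cleave-'n-Seq trials, in which uncleaved targets were sequenced and normalised to depth and to weakly complementary targets. Each reaction held 0.1 nM transcribed, DNA-blocked target RNA library and 1 nM active affinity-purified piRISC carrying one synthetic guide, with or without 500 nM GTSF1 partner protein, in HEPES–potassium acetate buffer at 33 °C for 0–8 or 0–960 min. k3 was capped at 0.0001 min^-1.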

[2] = tested on: MIWI (PIWIL1) piRISC loaded with piRNA #1 (30 nt); assay: as above; details: guide: piRNA #1 5'p-UGAGGUAGUAGGUUGUAUAGUAUCCAGAGG; auxiliary factor: 500 nM mouse GTSF1
Procedure, shortened: as §1

[3] = tested on: EfPiwi piRISC loaded with piRNA #1 (26 nt); assay: pre-steady-state target cleavage rate (min^-1); guide: piRNA #1 5'p-UGAGGUAGUAGGUUGUAUAGUAUCCA; MIWI and MILI are mouse PIWI proteins and EfPiwi is from a freshwater sponge; tags in brackets are library labels; higher = faster piRNA-guided slicing of the target; details: auxiliary factor: 500 nM Ephydatia muelleri Gtsf1
Procedure, shortened: as §1

Sequence | pre-steady-state target cleavage rate [1] | pre-steady-state target cleavage rate [2] | pre-steady-state target cleavage rate [3]
GGAGUGGAUACUAUACAACCCUACUACCUCA | 0.00153 ± 0.0044 | 0.000176 ± 0.021 | 0.00375 ± 0.0023
GGAGACCUAUGAUAUGUUGCUACUAUCUCA | 0.000282 ± 0.017 | 0.00048 ± 0.013 | 0.00108 ± 0.0043
GGAGACCUAUGAUAACAACCUACUACGUCA | 0.00125 ± 0.0031 | 0.00139 ± 0.0028 | 0.000702 ± 0.0066
GGAGACCUAUGAUAUGUUGCUACAUACCUCA | 0.000321 ± 0.016 | 0.000852 ± 0.0065 | 0.000103 ± 0.026
GGAGACCUAUGUAUACAACGUACUAGCUCA | 0.00195 ± 0.0035 | 0.000413 ± 0.009 | 0.00197 ± 0.004
GGAGACCUAACUAAACAACCUACUUCCUCA | 0.0346 ± 0.013 | 0.00339 ± 0.0042 | 0.00153 ± 0.0054
GGAGACCUAUGAUAUGUACCAUGUACCUCA | 0.000326 ± 0.018 | 0.000457 ± 0.01 | 0.00024 ± 0.013
GGAGACCUAUGAAUACAUACCUACUACCUCA | 0.000558 ± 0.0094 | 0.000626 ± 0.0068 | 0.000445 ± 0.0094
GGAGACCUAUGUAUACAACCUACUAGCUGA | 0.000947 ± 0.0058 | 0.00102 ± 0.0037 | 0.000585 ± 0.013
GGAGACCUAUGAUAUGUACCGUACUACCUCA | 0.00056 ± 0.0065 | 0.000256 ± 0.0079 | 0.0012 ± 0.0068
GGAGACCUAUGAUUACAACCAACUACGUCA | 0.00203 ± 0.0036 | 0.000364 ± 0.0066 | 0.00152 ± 0.0061
GGAGACCUAUGAAUACAACCUACUAGCACA | 0.00098 ± 0.0064 | 0.000131 ± 0.012 | 0.000131 ± 0.027
GGAGACCUAUGAUAACUACCUACUACCACA | 0.000873 ± 0.0065 | 0.000171 ± 0.014 | 0.000167 ± 0.019
GGAGACCUAUGAUAUGUAGCCUACUACCUCA | 0.00244 ± 0.0035 | 0.000126 ± 0.036 | 0.000258 ± 0.012
GGAGACCUAUGUAUACUACCUACUAGCUCA | 0.0108 ± 0.0031 | 0.000606 ± 0.0063 | 0.00143 ± 0.0062
GGAGACCUAUGAUAUCACCCUACUACCUCA | 0.00113 ± 0.0056 | 0.000854 ± 0.0036 | 0.000917 ± 0.009
GGAGACCUAUGUAUAGAACCUACAACCUCA | 0.00197 ± 0.0022 | 0.000268 ± 0.013 | 0.000152 ± 0.024

Reformatted tab-delimited: entries from further up.
Sequence	pre-steady-state target cleavage rate [1]	pre-steady-state target cleavage rate [2]	pre-steady-state target cleavage rate [3]
GGAGACCUAUGUAUACAACGUACUAGCUCA	0.00195 ± 0.0035	0.000413 ± 0.009	0.00197 ± 0.004
GGAGACCUAUGAUAUGUACCAUGUACCUCA	0.000326 ± 0.018	0.000457 ± 0.01	0.00024 ± 0.013
